Test results as given in paper PMC11019928.
These are yes or no findings as the source states them, for the method shown. Binding can be weak; no strength is given.

Target: T1, CviR (Chromobacterium violaceum) (UniProt Q7NQP7)
T1 sequence: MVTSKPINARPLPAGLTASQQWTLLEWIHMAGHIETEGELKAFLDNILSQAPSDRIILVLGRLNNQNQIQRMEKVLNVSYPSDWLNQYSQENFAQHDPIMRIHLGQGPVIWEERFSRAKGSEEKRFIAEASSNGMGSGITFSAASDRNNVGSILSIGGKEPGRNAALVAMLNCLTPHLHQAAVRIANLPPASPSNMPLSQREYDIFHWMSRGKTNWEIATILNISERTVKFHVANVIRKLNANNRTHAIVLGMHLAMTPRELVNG
Test: two-hybrid; yeast double-hybrid in S. cerevisiae AH109; VioS as prey (activation domain, pGADTK7), CviR as bait (DNA-binding domain, pGBKT7); growth on SD-WLHA (without leucine, tryptophan, histidine and adenine)

## VioS (Chromobacterium violaceum)
  binding: binds
